Reference: article PMC8327854

Tests used:
[1] = biological target: T1, α-dystroglycan with functional glycosylation (human (endogenous in iPS cell-derived myotubes)) (UniProt Q14118); assay: far-Western, overlay or dot blot; laminin overlay assay (LOA): WGA-agarose eluates of myotube lysates (400 ug protein) resolved on 4%-20% SDS-PAGE, on PVDF; overlaid with 1 mg/ml native laminin in TBS with 1 mM CaCl2, 1 mM MgCl2, 3% BSA, 2 hr at room temperature; detected with anti-laminin; only the binder purified
T1 sequence (chain, functional glycosylation (IIH6-reactive, laminin-binding)): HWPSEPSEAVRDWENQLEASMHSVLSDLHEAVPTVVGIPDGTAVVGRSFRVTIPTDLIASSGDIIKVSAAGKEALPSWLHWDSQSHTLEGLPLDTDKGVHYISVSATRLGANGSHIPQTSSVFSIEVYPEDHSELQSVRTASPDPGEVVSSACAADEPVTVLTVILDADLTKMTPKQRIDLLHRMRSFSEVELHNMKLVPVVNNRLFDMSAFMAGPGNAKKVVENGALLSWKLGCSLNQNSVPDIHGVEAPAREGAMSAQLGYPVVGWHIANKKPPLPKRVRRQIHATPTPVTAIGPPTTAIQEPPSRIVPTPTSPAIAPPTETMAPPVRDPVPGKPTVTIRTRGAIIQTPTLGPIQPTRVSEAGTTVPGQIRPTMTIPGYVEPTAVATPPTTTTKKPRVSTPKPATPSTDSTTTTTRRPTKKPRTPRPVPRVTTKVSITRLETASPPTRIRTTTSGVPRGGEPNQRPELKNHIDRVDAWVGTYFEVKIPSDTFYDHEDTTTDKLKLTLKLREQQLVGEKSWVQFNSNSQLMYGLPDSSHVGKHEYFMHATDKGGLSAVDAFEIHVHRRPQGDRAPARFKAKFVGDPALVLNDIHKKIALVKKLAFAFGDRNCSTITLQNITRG

[2] = biological target: T2, α-dystroglycan lacking functional glycosylation (from WWS FKRP mutant cells) (human (endogenous in iPS cells and iPS cell-derived myotubes)) (UniProt Q14118); assay: as above
T2 sequence: T1 sequence (chain, functional glycosylation (IIH6-reactive, laminin-binding))

[3] = biological target: T2, α-dystroglycan lacking functional glycosylation (from WWS FKRP mutant cells) (human (endogenous in iPS cells and iPS cell-derived myotubes)); assay: far-Western, overlay or dot blot; laminin overlay assay (LOA) on samples of undifferentiated iPS cells (Figure S1E); only the binder purified

Q: What does the source list for native laminin (L2020 Sigma) (complex)?
A: binding [1]: binds; binding [2]: no binding (tested: 1 mg/ml); binding [3]: no binding

These are yes or no findings as the source states them, for the method shown. For part of these data: Binding calls can cover weak binding; strength is not graded here.
